These are yes or no findings as the source states them, for the method shown. Binding seen in cells or lysates may run through a third protein. Some results given as binding are weak or reduced against the parent protein; the word gives no strength. For some assays here: Where a sequence is shown, tags or fusion partners need not be part of it.
T1: ubiquitin-specific protease 3 (USP3), endogenous (human (endogenous in the human cell lines of the paper; line not named)) (UniProt Q9Y6I4)
T1 sequence: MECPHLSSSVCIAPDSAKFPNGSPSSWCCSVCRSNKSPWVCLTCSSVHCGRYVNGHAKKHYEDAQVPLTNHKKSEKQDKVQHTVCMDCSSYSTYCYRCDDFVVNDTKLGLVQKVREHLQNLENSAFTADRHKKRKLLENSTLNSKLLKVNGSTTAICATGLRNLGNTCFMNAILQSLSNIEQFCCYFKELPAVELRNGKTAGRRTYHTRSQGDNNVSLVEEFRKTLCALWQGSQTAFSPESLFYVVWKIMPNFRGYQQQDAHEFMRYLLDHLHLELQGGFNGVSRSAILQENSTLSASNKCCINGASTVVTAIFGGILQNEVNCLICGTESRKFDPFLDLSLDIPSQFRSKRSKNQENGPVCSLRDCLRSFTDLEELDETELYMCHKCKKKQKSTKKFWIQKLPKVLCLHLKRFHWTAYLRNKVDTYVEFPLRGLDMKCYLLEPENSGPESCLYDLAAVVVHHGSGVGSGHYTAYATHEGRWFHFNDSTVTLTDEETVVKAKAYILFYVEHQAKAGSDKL

T2: USP3-GST fusion (human) (UniProt Q9Y6I4)
T2 sequence: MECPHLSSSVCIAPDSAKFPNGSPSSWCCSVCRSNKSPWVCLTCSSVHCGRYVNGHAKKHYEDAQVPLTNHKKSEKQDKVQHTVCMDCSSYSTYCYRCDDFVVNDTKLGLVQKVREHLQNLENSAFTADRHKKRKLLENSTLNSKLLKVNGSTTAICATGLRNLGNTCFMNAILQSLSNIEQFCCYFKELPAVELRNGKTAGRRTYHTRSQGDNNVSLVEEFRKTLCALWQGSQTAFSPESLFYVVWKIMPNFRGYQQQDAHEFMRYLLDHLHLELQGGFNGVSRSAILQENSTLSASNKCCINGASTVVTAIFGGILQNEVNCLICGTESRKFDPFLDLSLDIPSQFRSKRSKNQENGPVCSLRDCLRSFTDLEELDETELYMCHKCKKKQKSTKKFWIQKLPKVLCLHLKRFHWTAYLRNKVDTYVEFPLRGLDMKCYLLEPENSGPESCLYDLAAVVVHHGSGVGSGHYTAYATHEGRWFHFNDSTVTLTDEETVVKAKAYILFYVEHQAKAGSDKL


What was measured:
[1] = target: T1, ubiquitin-specific protease 3 (USP3), endogenous (human (endogenous in the human cell lines of the paper; line not named)); assay: co-IP; endogenous proteins; cell lysates (IP lysis buffer) with antibodies against USP3 or WDTC1 at 4 °C overnight, protein A/G beads 1 h, western blot (Pierce Classic Magnetic Co-IP Kit)
USP3-GST fusion (human) = target: T2, USP3-GST fusion (human); assay: pull-down; USP3-GST (or control GST) from BL21 held on glutathione sepharose 4B beads, Flag-WDTC1 added, 3 h at 4 °C, rinsed with PBS, western blot

binding [1]	binding (USP3-GST fusion (human))	Binder
binds	–	WD40 and tetratricopeptide repeats 1 (WDTC1), endogenous (protein, UniProt Q8N5D0 1-677) MAKVNITRDLIRRQIKERGALSFERRYHVTDPFIRRLGLEAELQGHSGCVNCLEWNEKGDLLASGSDDQHTIVWDPLHHKKLLSMHTGHTANIFSVKFLPHAGDRILITGAADSKVHVHDLTVKETIHMFGDHTNRVKRIATAPMWPNTFWSAAEDGLIRQYDLRENSKHSEVLIDLTEYCGQLVEAKCLTVNPQDNNCLAVGASGPFVRLYDIRMIHNHRKSMKQSPSAGVHTFCDRQKPLPDGAAQYYVAGHLPVKLPDYNNRLRVLVATYVTFSPNGTELLVNMGGEQVYLFDLTYKQRPYTFLLPRKCHSSGEVQNGKMSTNGVSNGVSNGLHLHSNGFRLPESRGHVSPQVELPPYLERVKQQANEAFACQQWTQAIQLYSKAVQRAPHNAMLYGNRAAAYMKRKWDGDHYDALRDCLKAISLNPCHLKAHFRLARCLFELKYVAEALECLDDFKGKFPEQAHSSACDALGRDITAALFSKNDGEEKKGPGGGAPVRLRSTSRKDSISEDEMVLRERSYDYQFRYCGHCNTTTDIKEANFFGSNAQYIVSGSDDGSFFIWEKETTNLVRVLQGDESIVNCLQPHPSYCFLATSGIDPVVRLWNPRPESEDLTGRVVEDMEGASQANQRRMNADPLEVMLLNMGYRITGLSSGGAGASDDEDSSEGQVQCRPS
–	binds	Flag-WDTC1 (protein, UniProt Q8N5D0 1-677) MAKVNITRDLIRRQIKERGALSFERRYHVTDPFIRRLGLEAELQGHSGCVNCLEWNEKGDLLASGSDDQHTIVWDPLHHKKLLSMHTGHTANIFSVKFLPHAGDRILITGAADSKVHVHDLTVKETIHMFGDHTNRVKRIATAPMWPNTFWSAAEDGLIRQYDLRENSKHSEVLIDLTEYCGQLVEAKCLTVNPQDNNCLAVGASGPFVRLYDIRMIHNHRKSMKQSPSAGVHTFCDRQKPLPDGAAQYYVAGHLPVKLPDYNNRLRVLVATYVTFSPNGTELLVNMGGEQVYLFDLTYKQRPYTFLLPRKCHSSGEVQNGKMSTNGVSNGVSNGLHLHSNGFRLPESRGHVSPQVELPPYLERVKQQANEAFACQQWTQAIQLYSKAVQRAPHNAMLYGNRAAAYMKRKWDGDHYDALRDCLKAISLNPCHLKAHFRLARCLFELKYVAEALECLDDFKGKFPEQAHSSACDALGRDITAALFSKNDGEEKKGPGGGAPVRLRSTSRKDSISEDEMVLRERSYDYQFRYCGHCNTTTDIKEANFFGSNAQYIVSGSDDGSFFIWEKETTNLVRVLQGDESIVNCLQPHPSYCFLATSGIDPVVRLWNPRPESEDLTGRVVEDMEGASQANQRRMNADPLEVMLLNMGYRITGLSSGGAGASDDEDSSEGQVQCRPS

Source: publication PMC10656961
